# Laboratory results: PubChem BioAssay AID1224830 (NIAID, 2016)
# Assay: 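Host factors that control LPS-induced TNF expression in human macrophages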 (primary screen)
# System: human THP-1 monocytic leukaemia cells, TNF dual-luciferase reporter clone, PMA-differentiated to macrophage-like cells
# Reagent: siRNA pool against human genes, 50 nM
# Time to read-out: LPS for 4 h, given about 3 days after siRNA transfection
# Challenge: bacterial LPS (TLR4 ligand), 10 ng/ml
# Detection: 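TNF firefly reporter luminescence divided by renilla, normalised to the plate median, then turned into a robust z-score for each replicate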
# Scale: TNF reporter robust z-score: higher = stronger TNF reporter response to LPS
# Active means: 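a well is active when its z-score exceeds 2.8 or falls below -1.5; control wells carry no call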
# The deposit covers about 18,000 reagents; below is a part drawn at random. Of all reagents, about 2,900 (16%) got an active call. 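Calls are made per well; low scores hint the gene aids the LPS response, high scores that it dampens it.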 Entries without a mark were called inactive. Repeated entries: four replicate wells of each siRNA pool.
target gene,TNF reporter robust z-score
PAPOLA (poly(A) polymerase alpha),-1.06
PAPOLA (poly(A) polymerase alpha),-0.89
PAPOLA (poly(A) polymerase alpha),-0.82
PAPOLA (poly(A) polymerase alpha),0.13
CYP26C1 (cytochrome P450 family 26 subfamily C member 1),0.81
CYP26C1 (cytochrome P450 family 26 subfamily C member 1),0.91
CYP26C1 (cytochrome P450 family 26 subfamily C member 1),0.87
CYP26C1 (cytochrome P450 family 26 subfamily C member 1),0.65
PIP4K2C (phosphatidylinositol-5-phosphate 4-kinase type 2 gamma),1.67
PIP4K2C (phosphatidylinositol-5-phosphate 4-kinase type 2 gamma),1.69
PIP4K2C (phosphatidylinositol-5-phosphate 4-kinase type 2 gamma),2.55
PIP4K2C (phosphatidylinositol-5-phosphate 4-kinase type 2 gamma),2.18
TFDP3 (transcription factor Dp family member 3),0.54
TFDP3 (transcription factor Dp family member 3),1.9
TFDP3 (transcription factor Dp family member 3),-0.48
TFDP3 (transcription factor Dp family member 3),1.56
"GIMAP1 (GTPase, IMAP family member 1)",0.18
"GIMAP1 (GTPase, IMAP family member 1)",0.66
"GIMAP1 (GTPase, IMAP family member 1)",0.93
"GIMAP1 (GTPase, IMAP family member 1)",0.74
CTDSP2 (CTD small phosphatase 2),0.98
CTDSP2 (CTD small phosphatase 2),2.41
CTDSP2 (CTD small phosphatase 2),1.43
CTDSP2 (CTD small phosphatase 2),1.64
PKD2L2,-0.73
PKD2L2,1.53
PKD2L2,1
PKD2L2,-0.59
CXorf65 (chromosome X open reading frame 65),-0.93
CXorf65 (chromosome X open reading frame 65),0.72
CXorf65 (chromosome X open reading frame 65),0.25
CXorf65 (chromosome X open reading frame 65),0.93
HSDL1 (hydroxysteroid dehydrogenase like 1),-0.48
HSDL1 (hydroxysteroid dehydrogenase like 1),-0.65
HSDL1 (hydroxysteroid dehydrogenase like 1),-0.78
HSDL1 (hydroxysteroid dehydrogenase like 1),0.2
ZNF675 (zinc finger protein 675),-0.02
ZNF675 (zinc finger protein 675),0.36
ZNF675 (zinc finger protein 675),-0.42
ZNF675 (zinc finger protein 675),-0.65
OFD1 (OFD1 centriole and centriolar satellite protein),-1.06
OFD1 (OFD1 centriole and centriolar satellite protein),-0.04
OFD1 (OFD1 centriole and centriolar satellite protein),-0.14
OFD1 (OFD1 centriole and centriolar satellite protein),-0.2
EXOSC4 (exosome component 4),-1.02
EXOSC4 (exosome component 4),-0.95
EXOSC4 (exosome component 4),-0.81
EXOSC4 (exosome component 4),-0.26
GSTA3 (glutathione S-transferase alpha 3),-0.95
GSTA3 (glutathione S-transferase alpha 3),-2.08 (active)
GSTA3 (glutathione S-transferase alpha 3),-1.37
GSTA3 (glutathione S-transferase alpha 3),-0.5
ACTG1 (actin gamma 1),-0.91
ACTG1 (actin gamma 1),-1.11
ACTG1 (actin gamma 1),-0.22
ACTG1 (actin gamma 1),-0.04

Next part; the last 18 above are carried over.
target gene,TNF reporter robust z-score
ZNF675 (zinc finger protein 675),-0.42
ZNF675 (zinc finger protein 675),-0.65
OFD1 (OFD1 centriole and centriolar satellite protein),-1.06
OFD1 (OFD1 centriole and centriolar satellite protein),-0.04
OFD1 (OFD1 centriole and centriolar satellite protein),-0.14
OFD1 (OFD1 centriole and centriolar satellite protein),-0.2
EXOSC4 (exosome component 4),-1.02
EXOSC4 (exosome component 4),-0.95
EXOSC4 (exosome component 4),-0.81
EXOSC4 (exosome component 4),-0.26
GSTA3 (glutathione S-transferase alpha 3),-0.95
GSTA3 (glutathione S-transferase alpha 3),-2.08 (active)
GSTA3 (glutathione S-transferase alpha 3),-1.37
GSTA3 (glutathione S-transferase alpha 3),-0.5
ACTG1 (actin gamma 1),-0.91
ACTG1 (actin gamma 1),-1.11
ACTG1 (actin gamma 1),-0.22
ACTG1 (actin gamma 1),-0.04
MAGEA3 (MAGE family member A3),1.36
MAGEA3 (MAGE family member A3),1.21
MAGEA3 (MAGE family member A3),1.52
MAGEA3 (MAGE family member A3),1.05
EIF2B3 (eukaryotic translation initiation factor 2B subunit gamma),-0.53
EIF2B3 (eukaryotic translation initiation factor 2B subunit gamma),-0.68
EIF2B3 (eukaryotic translation initiation factor 2B subunit gamma),-0.88
EIF2B3 (eukaryotic translation initiation factor 2B subunit gamma),-1.31
TMEM121 (transmembrane protein 121),-0.09
TMEM121 (transmembrane protein 121),0.22
TMEM121 (transmembrane protein 121),-0.45
TMEM121 (transmembrane protein 121),-1.04
ZNF333 (zinc finger protein 333),-0.07
ZNF333 (zinc finger protein 333),1.45
ZNF333 (zinc finger protein 333),1.59
"EPS8 (EGFR pathway substrate 8, signaling adaptor)",-1.64 (active)
"EPS8 (EGFR pathway substrate 8, signaling adaptor)",-1.23
"EPS8 (EGFR pathway substrate 8, signaling adaptor)",-1.33
"EPS8 (EGFR pathway substrate 8, signaling adaptor)",-1.24
TANC1,0.14
TANC1,-1.87 (active)
TANC1,-0.77
TANC1,-0.03
CDKN2B (cyclin dependent kinase inhibitor 2B),-0.62
CDKN2B (cyclin dependent kinase inhibitor 2B),0.43
CDKN2B (cyclin dependent kinase inhibitor 2B),0.24
CDKN2B (cyclin dependent kinase inhibitor 2B),1.07
MAP3K4 (mitogen-activated protein kinase kinase kinase 4),1.04
MAP3K4 (mitogen-activated protein kinase kinase kinase 4),0.76
MAP3K4 (mitogen-activated protein kinase kinase kinase 4),-0.52
MAP3K4 (mitogen-activated protein kinase kinase kinase 4),1.01
SLC7A13,-0.25
SLC7A13,0.01
SLC7A13,-0.3
SLC7A13,-0.4
MRGPRE (MAS related GPR family member E),-0.33
MRGPRE (MAS related GPR family member E),0.29
MRGPRE (MAS related GPR family member E),0.54
MRGPRE (MAS related GPR family member E),1.22
PDE7B (phosphodiesterase 7B),1.07
PDE7B (phosphodiesterase 7B),0.68
PDE7B (phosphodiesterase 7B),-0.33
PDE7B (phosphodiesterase 7B),-0.13
CELA1 (chymotrypsin like elastase 1),0.73
CELA1 (chymotrypsin like elastase 1),-1.06
CELA1 (chymotrypsin like elastase 1),0.5
CELA1 (chymotrypsin like elastase 1),1.38
LRGUK (leucine rich repeats and guanylate kinase domain containing),-0.45
LRGUK (leucine rich repeats and guanylate kinase domain containing),-0.66
LRGUK (leucine rich repeats and guanylate kinase domain containing),-0.58
LRGUK (leucine rich repeats and guanylate kinase domain containing),0.01
TRIM24 (tripartite motif containing 24),0.97
TRIM24 (tripartite motif containing 24),-0.29
TRIM24 (tripartite motif containing 24),3.83 (active)
TRIM24 (tripartite motif containing 24),0.72
BEND7 (BEN domain containing 7),-1.05
BEND7 (BEN domain containing 7),-0.59
BEND7 (BEN domain containing 7),-0.83
BEND7 (BEN domain containing 7),-0.33
MMP25 (matrix metallopeptidase 25),-1.14
MMP25 (matrix metallopeptidase 25),-1.05
MMP25 (matrix metallopeptidase 25),-1.13
MMP25 (matrix metallopeptidase 25),-1.39
ZNF572 (zinc finger protein 572),-0.41
ZNF572 (zinc finger protein 572),0.93
ZNF572 (zinc finger protein 572),-0.18
ZNF572 (zinc finger protein 572),-0.62
KIAA0513,-0.31
KIAA0513,-0.5
KIAA0513,-0.82
WFDC2 (WAP four-disulfide core domain 2),0.39
WFDC2 (WAP four-disulfide core domain 2),0.14
WFDC2 (WAP four-disulfide core domain 2),-1.25
WFDC2 (WAP four-disulfide core domain 2),-0.38
SPRY2 (sprouty RTK signaling antagonist 2),0.07
SPRY2 (sprouty RTK signaling antagonist 2),-0.98
SPRY2 (sprouty RTK signaling antagonist 2),-0.86
SPRY2 (sprouty RTK signaling antagonist 2),0.4
SLC34A2,-1.36
SLC34A2,-1.1
SLC34A2,-1.18
SLC34A2,-0.67
CD177 (CD177 molecule),-0.15
CD177 (CD177 molecule),-0.51
CD177 (CD177 molecule),-0.09
CD177 (CD177 molecule),0.26
